Screening data, single-dose tests

Sequences of proteins named here, by UniProt entry; tags and fusion partners are left off. Residues count along the entry.
UniProt Q8IDJ8, 1-583: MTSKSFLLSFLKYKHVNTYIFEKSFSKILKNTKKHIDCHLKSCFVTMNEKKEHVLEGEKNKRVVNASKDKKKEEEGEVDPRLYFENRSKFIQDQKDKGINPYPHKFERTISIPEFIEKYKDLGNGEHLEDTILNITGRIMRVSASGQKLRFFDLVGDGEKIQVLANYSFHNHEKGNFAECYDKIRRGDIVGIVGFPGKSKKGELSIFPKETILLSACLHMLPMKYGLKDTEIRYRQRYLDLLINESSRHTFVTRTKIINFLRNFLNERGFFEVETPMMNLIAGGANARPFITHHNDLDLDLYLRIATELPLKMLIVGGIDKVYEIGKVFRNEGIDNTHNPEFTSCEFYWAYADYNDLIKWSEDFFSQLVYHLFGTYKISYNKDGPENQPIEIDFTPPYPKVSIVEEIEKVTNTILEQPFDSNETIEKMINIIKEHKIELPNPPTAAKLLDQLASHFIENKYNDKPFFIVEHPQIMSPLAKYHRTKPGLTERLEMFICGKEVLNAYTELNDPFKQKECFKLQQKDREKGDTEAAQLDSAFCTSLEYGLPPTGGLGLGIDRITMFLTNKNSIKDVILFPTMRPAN

The values are deposited in ChEMBL (CHEMBL3988442, “University of Dundee, Small-Polar-MMV Screening Library” (2021)).

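Lysine-tRNA ligase, Plasmodium falciparum 3D7 (UniProt Q8IDJ8). Enzyme assay of the cytosolic lysyl-tRNA synthetase in 384-well plates, read by luminescence. Tested at 30 µM. Direction is inferred from only a few compounds that gave an IC50; most scored high, so higher reads as stronger inhibition. Size under these conditions: about 69,000 compounds, about 49 of them at 50% or above in at least one test.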

Values are the deposited “Percent Effect”, in %. The record does not define 0% and 100%; most values in the screen are far below 50% and negative numbers occur (in some assays of this library far below -100). Compounds were drawn at random from those tested, without regard to their results.

| structure | percent effect |
|---|---|
| `CCN(Cc1ccc(OC)c(F)c1)C(=O)c1ccc(C)[nH]c1=O` | 2.947% |
| `CC(C)CN1C[C@H]2CCN(C(=O)C3CCCO3)CC[C@H]2S1(=O)=O` (stereo not given in full) | 16.63% |
| `O=C(NC1CCCC1)O[C@H]1COCCN(c2nc3ccccc3o2)C1` | 10.53% |
| `Cc1ncsc1C(=O)N1CCCC(c2cc(C(F)F)n3ncnc3n2)C1` (stereo not given) | 0.4343% |
| `Cc1ncc(C)c(N2Cc3cnn(Cc4ccc(F)cc4)c3C2)n1` | 6.896% |
| `N#Cc1c(Cl)nsc1NCCN1CCOCC1` | 3.671% |
| `Cc1ccc(F)cc1NC(=O)NCC(C)N1CCOCC1` (stereo not given) | -2.011% |
| `Cc1nc2cc(O)nn2c(C)c1CCC(=O)N(C)CCC(C)C` | 1.778% |
| `CCOc1ccc(C(F)(F)F)cc1NC(=O)N1CCNC(=O)C1` | 3.421% |
| `CCOc1ncccc1CNC(=O)Nc1ccccc1` | 0.6086% |
| `CSCC[C@@H]1CN2CCC[C@H]2CN1Cc1coc2ccc(Cl)cc2c1=O` | -0.5549% |
| `CC(=O)N1CCC2(CCN(C(=O)c3ccc(Cl)c(C(F)(F)F)c3)C2)C1` (stereo not given) | 5.05% |
| `N#Cc1ccc(CNC(=O)NC2CCN(CC(F)F)CC2)cc1` | 3.323% |
| `O=C(Cc1ccccc1)N1CCC2(CCN2Cc2ccc(F)cc2)C1` (stereo not given) | 0.5289% |
| `Cn1nc(Br)c2c(NCCSCCCO)ncnc21` | 6.232% |
| `CC(c1cc(F)ccc1F)N1CCN(Cc2nccn2C)CC1` (stereo not given) | 0.1968% |
| `CC(Cn1cccn1)Nc1cnc2ccccc2n1` (stereo not given) | 9.488% |
| `CCC(Nc1nc(CCN)nc2ccccc12)c1cc(C)ccn1` (stereo not given) | -1.206% |
| `Cc1ccccc1OCC(=O)NCC(c1ccc(N(C)C)cc1)N(C)C` (stereo not given) | -3.187% |
| `CCCc1nccn1-c1ccncc1` | 3.379% |
| `CC(C)Nc1cc(N2CCC(n3cc(C4CC4)nn3)CC2)ncn1` | -1.666% |
| `Cc1c(CN2CCCC(C(=O)c3ccccc3)C2)cc(C#N)n1C` (stereo not given) | 1.727% |
| `CCn1c(N)nc2cc(C(=O)N3CCN(CC(F)(F)F)CC3)cnc21` | 4.923% |
| `CCCn1cc(-c2ccnc(NC3CCc4ccccc4C3)n2)c(C)n1` (stereo not given) | 3.971% |
| `COCCc1noc(CN2CCOC(Cn3cc(C)cn3)C2)n1` (stereo not given) | 3.283% |
| `COCc1cccc(C(=O)N(C)Cc2ncc(C)c(OC)c2C)c1` | 2.23% |
| `CN(CC1CCN(CCO)CC1)CC(O)c1ccc(F)cc1F` (stereo not given) | -0.3578% |
| `COCC(C)NC(=O)c1cn(C(C)(C)C)c2ncccc12` (stereo not given) | 4.436% |
| `CN(C)CC1CCN(Cc2nccn2CC(F)(F)F)CC1` | 0.2248% |
| `CCOc1ccc(-n2nnc(C(=O)O)c2-c2ccccn2)cc1` | 7.533% |
| `CN(C)CCn1c(=O)oc2ccc(NC(=O)CC(C)(C)C)cc21` | 2.202% |
| `CN(C)C(=O)c1cn[nH]c1C1(C)CCN(c2ncccn2)CC1` | 0.8774% |
| `O=C(NC1CCCC1)c1cc(Cn2cnc3ccccc32)on1` | 1.548% |
| `CN(Cc1cn2c(n1)CN(C(=O)C1CCOCC1)CC2)Cc1ccco1` | 1.858% |
| `COCc1ccccc1NC(=O)NCc1ccc(OCC2CC2)nc1` | 1.336% |
| `O=C(NCc1ccccc1Cl)c1[nH]nc2c1CS(=O)(=O)CC2` | 7.245% |
| `CN1C(=O)C(c2ccccc2)CC12CCN(CCOCCO)CC2` (stereo not given) | 1.491% |
| `Cc1cccnc1CCNC(=O)CC1C(=O)NCCN1CCC(C)C` (stereo not given) | -3.845% |
| `CC1(C(=O)N2CCOCC2)CN(Cc2c[nH]cn2)CCO1` (stereo not given) | 3.097% |
| `COc1ccc(-c2cc(CN)ccc2F)c(OC)c1OC` | 2.625% |
| `COCCCNC(=O)Nc1cccc(Cl)c1-n1cccn1` | 5.199% |
| `CCN(Cc1nccs1)Cc1cc(Cl)ccc1OC` | 4.147% |
| `O=C(CS(=O)(=O)Cc1nnnn1C1CC1)NCCc1ccccc1` | 8.839% |
| `CCn1cc(CN2CCCN(C(=O)c3cc(C)no3)CC2)cn1` | -1.68% |
| `CCn1ccnc1C1CCN(Cc2cccc(C)n2)CC1` | 2.068% |
| `Cc1noc(-c2ccnc(N3CCC(N4CCCC4)CC3)c2)n1` | -0.9388% |
| `CC(C)COCC1CN(Cc2cnn(C)c2)Cc2ncn(C)c21` (stereo not given) | 2.3% |
| `COC(C)(C)CC(C)NC(=O)NC1CCN(Cc2ccccn2)CC1` (stereo not given) | 0.9383% |
| `COc1ccc(CC(=O)N2CCCN(c3ccc(C#N)cc3)CC2)cc1` | 13.13% |
| `Cc1cc(S(=O)(=O)Nc2cccc(OC(F)F)c2)sc1C(=O)O` | -1.813% |
| `Cc1ncc(C(=O)N2CCC(C(=O)NC3CCCC3)C2)c(C)n1` (stereo not given) | 5.066% |
| `CC(C)(C)c1ccc(S(=O)(=O)CCNC(=O)c2cnccn2)cc1` | -0.5444% |
| `CC(CNc1cncc(-n2cccn2)n1)N(C)c1ccccc1` (stereo not given) | 1.101% |
| `CC(=O)Nc1nc(C(=O)Nc2ccc(F)cc2)cs1` | 3.026% |
| `Cc1c(C2CCOC(C)(C)C2)nc(N)c(C#N)c1-c1ccc(O)cc1` (stereo not given) | -5.092% |

3 of the entries, repeated:

Result for CCOc1ncccc1CNC(=O)Nc1ccccc1 was 0.6086%.
Result for CN(Cc1cn2c(n1)CN(C(=O)C1CCOCC1)CC2)Cc1ccco1 was 1.858%.
Result for Cc1ncc(C(=O)N2CCC(C(=O)NC3CCCC3)C2)c(C)n1 (stereo not given) was 5.066%.